Reference: PubChem BioAssay AID2685 (National Center for Advancing Translational Sciences (NCATS), 2010)
About 2,100 (0.66%) of roughly 320,000 compounds were called active. The shares of active, inactive and inconclusive entries below differ from those in the screen. The call rests on the fitted dose curve; in most records, active means well fitted inhibition curve with a large enough effect in the signal ratio, with a control signal flat (not every such curve was filed as active); inconclusive means small, poorly fitted or top-dose-only effect, or effect the other way, or a change in a side signal; inactive means flat fitted curve, though single readings scatter; the % refers to the signal ratio. Where the call is inconclusive, the potency comes from a doubtful curve fit.

Assay: qHTS Assay for Lipid Storage Modulators in Drosophila S3 Cells
Conditions: BODIPY lipid droplet fluorescence, 18-24 h, cells fed with added oleic acid; lipid storage change, negative = inhibition: at 46.1 µM (top of the series) unless noted
In short: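 Drosophila S3 cells loaded with oleic acid (400 uM, as added) and compounds at several concentrations; lipid droplets imaged by 488-nm laser-scanning cytometry, 500–530 nm intensity and object ratio to cell channel. Percent activity normalized to 20 uM Triacsin C.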
On the % scale 0 is the no-effect control and ±100 the full control effect; potency means the concentration at half of the fitted maximal effect.

Row | SMILES | lipid storage change, negative = inhibition | Potency
1 | O=C(Nc1ccccc1N1CCOCC1)c1ccc2ccccc2c1 | inconclusive: -20.6% | 
2 | CCCCNC(=O)CSc1ccc(S(=O)(=O)N2CCOCC2)cn1 | inconclusive: 0.642% | 
3 | O=C(COC(=O)c1cc(=O)c2ccccc2o1)NCc1ccccc1 | inconclusive | 
4 | COc1ccc(-c2cc(=O)oc3cc(OCC(=O)c4cccc([N+](=O)[O-])c4)ccc23)cc1 |  | inconclusive: 0.092 µM [activator, full curve, poor fit]
5 | COC(=O)c1ccc(NC(=O)c2cc[n+](Cc3ccccc3)cc2)cc1 |  | inconclusive: 0.731 µM [activator, single point]
6 | CCOC(=O)c1[nH]c2ccccc2c1NC(=O)c1nonc1C |  | active: 2.06 µM
7 | COc1ccc(CC(=O)NCc2ccc3c(c2)cc(C)n3C)cc1 | inconclusive: 0.0321% | 
8 | COC(=O)c1cc(Br)ccc1NC(=O)CCNC(=O)c1ccco1 |  | inconclusive: 29.1 µM [activator, single point]
9 | N#CC1(NC(=O)COC(=O)Cn2[nH]c(=O)c3ccccc3c2=O)CCCCC1 | inconclusive: 0.33% | 
10 | CN(c1ncnc(N)c1[N+](=O)[O-])C1CCCCC1 | inconclusive: 47.8% | 
11 | COc1ccc(NC(C)=O)cc1S(=O)(=O)Nc1cccc(S(=O)(=O)NC2=NCCC2)c1 | inconclusive: -3.26% | 
12 | CCOc1ccc(C(C)NC(=O)c2ccccc2OCc2c(C)noc2C)cc1OCC (centres undefined) |  | inconclusive: 14.6 µM [falling, partial curve]
13 | COc1ccc(NC(=O)c2cccc3c(Br)cccc23)cc1 | inconclusive: 19.4% | 
14 | COc1ccc(NC(=O)CN2CCN(S(=O)(=O)c3ccc(F)cc3)CC2)cc1Cl | inconclusive: 32.1% | 
15 | Cc1cc(N2CCN(C)CC2)nc2ccc(NC(=O)CCC(=O)N3CCN(c4ccc([N+](=O)[O-])cc4)CC3)cc12 |  | inconclusive: 6.51 µM [activator, single point]
16 | CC(C)(C)OC(=O)N1CCC(C(=O)N[C@H](Cc2ccccc2)C(=O)O)CC1 | inconclusive: -40.2% | 
17 | N#Cc1c(SCc2ccccc2)nc(N2CCOCC2)c2c1CCCC2 | inconclusive: 69% | 
18 | CN(C)C1=NC(=O)/C(=C/c2ccc(-c3ccc(S(N)(=O)=O)cc3)o2)S1 |  | inconclusive: 29.1 µM [activator, single point]
19 | O=C(COc1ccc2c(c1)CCC2)N1CCN(c2cccc(C(F)(F)F)c2)CC1 | inactive | 
20 | c1ccc(COc2ccc3nocc3c2)cc1 | inconclusive: 19.2% | 
21 | CC(C)(C)c1ccc(OCc2ccc(C(=O)N/N=C3\CC4CC=CC34)cc2)cc1 (centres undefined) |  | inconclusive: 16.4 µM [falling, single point]
22 | CC1(C2CC2)NC(=O)N(CC(=O)Nc2ccc(C(F)(F)F)cc2)C1=O (centres undefined) |  | inconclusive: 6.51 µM [falling, partial curve, poor fit]
23 | NNC(=O)CN1C(=O)Nc2ccc(Cl)cc2C1c1ccccc1 (centres undefined) | inconclusive: 13.7% | 
24 | COCCNc1nnc(Cc2ccccc2)c(=O)[nH]1 | inconclusive: 39.9% | 
25 | COc1ccccc1-c1cc(C(F)(F)F)nc(N2CCOCC2)n1 | inconclusive: -98.1% | 

3 of the compounds above, as tab-separated lines.
Row	SMILES	lipid storage change, negative = inhibition	Potency
11	COc1ccc(NC(C)=O)cc1S(=O)(=O)Nc1cccc(S(=O)(=O)NC2=NCCC2)c1	inconclusive: -3.26%	
12	CCOc1ccc(C(C)NC(=O)c2ccccc2OCc2c(C)noc2C)cc1OCC (centres undefined)		inconclusive: 14.6 µM [falling, partial curve]
13	COc1ccc(NC(=O)c2cccc3c(Br)cccc23)cc1	inconclusive: 19.4%	

Later entries

Row | SMILES | lipid storage change, negative = inhibition | Potency
26 | O=C(COC(=O)c1cc(Cl)ccc1O)Nc1ccc2c(c1)OCCO2 |  | inconclusive: 10.3 µM [activator, partial curve]
27 | CCn1c2ccccc2c2cc(NC(=O)C(C)OC(=O)c3ccc(NC(=O)CC#N)cc3)ccc21 (centres undefined) | inconclusive: 5.1% | 
28 | O=C(CNC1=NCCC1)c1ccc2c(c1)OCCO2 | inconclusive: 0.0878% | 
29 | Cc1ccc(/C(O)=C2\C(=O)C(=O)N(CC(C)O)C2c2cccc(F)c2)cc1 (centres undefined) | inconclusive: 38.5% | 
30 | O=c1[nH]cccc1-c1nc2ccccc2n1Cc1ccc(Cl)cc1 | inconclusive: 1.72% | 
31 | COCCCn1c(C)c(C(C)=O)cc(NC(=O)c2ccccc2)c1=O | inconclusive: 20.6% | 
32 | Cn1ccnc1SCC(=O)Nc1ccc([N+](=O)[O-])cn1 | inconclusive: 22.2% | 
33 | CCCCOc1ccc(N(CC(=O)NC(C)(C)C)C(=O)CCC(=O)Nc2nccs2)cc1 | inconclusive: -29.2% | 
34 | C(#Cc1ccccc1)C[N+]1(CC#Cc2cccc3ccccc23)CCCC1 |  | inconclusive: 32.6 µM [cytotoxic, single point]
35 | S=C(Nc1ccc2c(c1)OCO2)Nc1ccc2c(c1)OCO2 |  | inconclusive: 5.17 µM [activator, partial curve, poor fit]
36 | COc1cc(/C=C/C(=O)O)cc(OC)c1OC | inconclusive: -29.2% | 
37 | O=C(NCc1ccccc1)C(=O)NCC1CCCN1S(=O)(=O)c1cccs1 (centres undefined) | inconclusive | 
38 | CC(C)c1ccc(OCC(=O)N2CCN(c3ccccn3)CC2)c(Br)c1 | inconclusive: -100% | 
39 | CCOc1ccc(OCC)c(NS(=O)(=O)c2cccc3nsnc23)c1 |  | inconclusive: 29.1 µM [activator, single point]
40 | CC1CC(C)(C)N(C(=O)NC2CCCCC2)c2ccccc21 (centres undefined) | inconclusive: -1.53% | 
41 | Cc1cc(Cl)ccc1NC(=S)NCCc1ccc(Cl)cc1 |  | active: 16.4 µM
42 | CCC(C)C(=O)Nc1nc(C)c(-c2csc(Nc3ccccc3OC)n2)s1 (centres undefined) | inconclusive: -5.51% | 
43 | COc1cccc(/C=N/n2cnc3cc(C)c(C)cc32)c1OC | inconclusive: -15.3% | 
44 | O=C(Nc1nc(-c2ccc(Cl)cc2Cl)cs1)C1CCCO1 (centres undefined) |  | inconclusive: 7.31 µM [activator, partial curve, poor fit]
45 | COc1cccc(/C(C)=N/Nc2ccc(S(=O)(=O)N3CCCCC3)cn2)c1 |  | inconclusive: 32.6 µM [falling, single point]
46 | Cc1nn(Cc2ccccc2)c2sc(C(=O)NCc3cccnc3)cc12 | inconclusive: -46.3% | 
47 | CC(NC(=O)c1cc2cc([N+](=O)[O-])ccc2oc1=O)C1CCCO1 (centres undefined) | inconclusive: 15.5% | 
48 | Cc1cc(-c2ccc(C)c(S(=O)(=O)NCCC(C)N3CCCCCC3)c2)on1 (centres undefined) | inactive | 
49 | CC1(C)Cc2nc3sc4c(SCC(=O)NC(c5ccccc5)c5ccccc5)ncnc4c3cc2CO1 | inconclusive: -13.2% | 
